Experimental data reported in patent publication US5792851A, “Human prostaglandin transporter” (Albert Einstin College of Medicine of Yeshiva University, a …, priority 1996, dated 1998).

Molecular target: human prostaglandin transporter (hPGT) (Homo sapiens, UniProt Q92959)
Test: Inhibition of hPGT-mediated tracer PGE2 uptake in transfected HeLa cells
Format: cell-based

For `NS(=O)(=O)c1cc(C(=O)O)c(NCc2ccco2)cc1Cl` [Furosemide], the “potency as inhibitor of hPGT (in words)” value was “moderately-potent inhibitor”.
